In all, about 580,000 compounds went through this assay and about 6,100 (1.1%) were called active. This list was built around the results that the source calls inconclusive (neither active nor inactive); the mix of calls is not that of the screen. The call rests on the fitted dose curve; in most records, active means well fitted inhibition curve with a large enough effect; inconclusive means small, poorly fitted or top-dose-only effect, or another doubt; inactive means no such curve, though single readings can be large or run the other way. A potency beside an inconclusive call is a rough fit, not a confirmed value.
Each compound was assayed against Polyunsaturated fatty acid lipoxygenase ALOX12 (Homo sapiens) (UniProt P18054) (assay: Primary qHTS assay for inhibitors of human arachidonate 12S-lipoxygenase (ALOX12): Round 2). Conditions: purified 12hLO, xylenol orange hydroperoxide absorbance; activity change, negative = inhibition: at 108 µM (top of the series) unless noted.
Method in brief: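 Purified human 12hLO at 150 nM in 25 mM Hepes, 0.01% Triton X-100, pH 7.0, preincubated 15 min at room temperature with compound. Reaction started with 40 uM arachidonic acid, 30 min at room temperature. Hydroperoxide measured by Fe-xylenol orange, 573/405 nm absorbance ratio.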
On the % scale 0 is the no-effect control and ±100 the full control effect; potency means the concentration at half of the fitted maximal effect.

Chains of the proteins cited; added tags and fusions are not shown. Lines headed by an entry give the natural chain unless they say otherwise; changes in a name come on top.
UniProt P18054: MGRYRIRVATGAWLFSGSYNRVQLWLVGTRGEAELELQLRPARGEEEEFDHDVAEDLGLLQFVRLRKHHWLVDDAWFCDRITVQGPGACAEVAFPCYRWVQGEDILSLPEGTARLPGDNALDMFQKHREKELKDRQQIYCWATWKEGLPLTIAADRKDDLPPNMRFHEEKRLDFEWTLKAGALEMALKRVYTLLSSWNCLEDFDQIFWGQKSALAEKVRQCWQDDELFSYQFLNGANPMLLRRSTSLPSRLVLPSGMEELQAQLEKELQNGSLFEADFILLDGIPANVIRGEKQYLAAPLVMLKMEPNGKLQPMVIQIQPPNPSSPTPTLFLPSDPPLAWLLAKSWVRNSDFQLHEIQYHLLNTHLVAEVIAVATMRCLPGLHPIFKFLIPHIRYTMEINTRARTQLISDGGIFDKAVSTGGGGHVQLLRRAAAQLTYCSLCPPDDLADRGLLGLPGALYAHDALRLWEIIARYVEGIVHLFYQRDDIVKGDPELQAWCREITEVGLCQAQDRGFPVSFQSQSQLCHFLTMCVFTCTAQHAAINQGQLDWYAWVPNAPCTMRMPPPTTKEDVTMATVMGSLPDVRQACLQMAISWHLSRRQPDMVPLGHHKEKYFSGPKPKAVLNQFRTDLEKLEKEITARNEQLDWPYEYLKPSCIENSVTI

Structure (SMILES) | activity change, negative = inhibition | Potency
Cc1cc(C(=O)CSc2nc3ccccc3n2C)c(C)n1C | inactive: 3.12% | 
CCCCC(=O)NC(=S)Nc1ccccc1N1CCCCC1 |  | inconclusive: 28.2 µM [inhibitor, full curve, poor fit]
C[C@H](O)[C@@H]1CN2CCc3c([nH]c4ccccc34)[C@@H]2C[C@@H]1N(C)C(=O)NC1CCCCC1 |  | inconclusive: 56.2 µM [inhibitor, single point]
COc1ccc(N/N=C(/C#N)S(=O)(=O)c2nsc(C)c2C#N)cc1 |  | inconclusive: 39.8 µM [inhibitor, partial curve, poor fit]
C=CCNC(=S)NNC(=O)c1ccc(=O)n(Cc2ccc(Cl)cc2Cl)c1 |  | inconclusive: 79.4 µM [inhibitor, partial curve, poor fit]
Nc1nc(Nc2cccc(Cl)c2)sc1C(=O)c1cccc(Br)c1 |  | inconclusive: 2.51 µM [inhibitor, full curve, poor fit]
COc1ccc(CC(NC(=O)c2ccc3c(c2)NC(=O)CCS3)c2ccc(OC)cc2)cc1 (stereo not drawn) | inactive: -29.7% | 
O=C(CCSc1nc2ccccc2s1)NCc1cc(F)cc(F)c1 |  | inconclusive: 79.4 µM [inhibitor, partial curve, poor fit]
O=C(NC(=S)Nc1ccccc1N1CCCCC1)c1ccccc1 |  | inconclusive: 50.1 µM [inhibitor, partial curve, poor fit]
CCCCNC(=O)c1onc(CSc2ccc(C)c(C)c2)c1C(=O)O |  | inconclusive: 50.1 µM [inhibitor, partial curve, poor fit]
COc1cccc(CCC(=O)N2CCCC(Cc3nc(C4CCOCC4)no3)C2)c1 (stereo not drawn) |  | inconclusive: 2.82 µM [inhibitor, full curve, poor fit]
CCc1ccc(N=C2NC(=O)/C(=C/c3cc(OC)c(O)c(OC)c3)S2)cc1 |  | inconclusive: 5.62 µM [inhibitor, full curve, poor fit]
CN1C(C(=O)c2ccccc2)=C(N)c2ccccc2S1(=O)=O | inactive: -6.06% | 
Cc1ccc(C(=O)N2CCCC3(CC(c4ccccn4)=NO3)C2)cc1 (stereo not drawn) |  | inconclusive: 10 µM [inhibitor, full curve, poor fit]
O=C(Cn1cc([N+](=O)[O-])cn1)N1N=C(C(F)F)CC1(O)C(F)F (stereo not drawn) | inactive: -2.43% | 
CCOc1ccccc1N1CC(c2nc3ccccc3n2Cc2c(C)cc(C)cc2C)CC1=O (stereo not drawn) |  | inconclusive: 31.6 µM [inhibitor, partial curve, poor fit]
COc1cc2ccc(C(C)=NNC(N)=S)cc2cc1OC |  | inconclusive: 39.8 µM [inhibitor, partial curve, poor fit]
COc1ccc(NC(=O)c2ccc3c(SCC(=O)O)c4c(nc3c2)CCC4)c(OC)c1 |  | inconclusive: 35.5 µM [inhibitor, partial curve, poor fit]
N[C@@H](CC(=O)N1CCn2c(nnc2C(F)(F)F)C1)Cc1cc(F)c(F)cc1F |  | inconclusive: 17.2 µM [inhibitor, partial curve, poor fit]
COc1ccc(-c2nc(SCc3cc(=O)c4cc(C)ccc4[nH]3)n[nH]2)cc1 |  | inconclusive: 35.5 µM [inhibitor, partial curve, poor fit]
C[n+]1ccccc1/C=C/c1ccc(C#N)cc1 |  | inconclusive: 89.1 µM [inhibitor, single point]
CS(=O)(=O)c1ncc(Cl)c(C(=O)Nc2ccc(OC(F)F)cc2)n1 | inactive: -14.5% | 

Structure (SMILES) | activity change, negative = inhibition | Potency
CCc1nc2ccccc2n1Cc1ccccc1OC | inactive: 0% | 
Cc1ccccc1C(=O)Nc1c(C)nc(Nc2ccccc2)nc1Nc1ccccc1 |  | inconclusive: 5.01 µM [inhibitor, full curve, poor fit]
CN(CC(=O)NC(=O)NCc1ccccc1)C1CCCc2ccccc21 (stereo not drawn) |  | inconclusive: 100 µM [inhibitor, single point]
Cc1cc(C)nc(NC(=O)/C=C/c2ccccc2Cl)c1 |  | inconclusive: 56.2 µM [inhibitor, partial curve, poor fit]
CCOc1ccc(N2C(=O)C(=O)/C(=C(/O)c3ccccc3)C2c2ccccc2[N+](=O)[O-])cc1 (stereo not drawn) |  | inconclusive: 20 µM [inhibitor, partial curve, poor fit]
Cc1ccsc1CN(C)C(=O)Cn1c(=O)c2c(ncn2C2CCCC2)n(Cc2ccccc2)c1=O | inactive: 23.6% | 
CC1CCCCN1C(=O)c1cc(Cl)ccc1[N+](=O)[O-] (stereo not drawn) | inactive: -7.96% | 
CN(C)CCN1C(=O)C2C(C(=O)Nc3cc(Cl)cc(Cl)c3)C3C=CC2(O3)C1C(=O)NC1CCCCC1 (stereo not drawn) | inactive: 7.61% | 
Cn1cncc1-c1cc2cnc(Nc3ccc(OC(F)(F)F)cc3)cc2[nH]1 |  | inconclusive: 2.82 µM [inhibitor, single point]
CC(C)OCCCNC(=O)c1ccccc1-c1ncc(-c2ccc(F)cc2)o1 | inactive: 17.7% | 
COC(=O)Cn1c(C)c(/C=C/c2cc[n+](C)cc2)c2ccccc21 |  | active: 44.7 µM
Fc1ccc(-c2noc(-c3ccc[nH]3)n2)cc1 | inactive: 8.3% | 
COc1ccc(C(=O)COC(=O)Cc2ccc(Cl)cc2Cl)cc1 |  | inconclusive: 126 µM [inhibitor, partial curve, poor fit]
C[C@H]1[C@@H]2[C@@H](O)C([C@H](C)C(=O)NCc3ccco3)CC[C@@]2(C)CC[C@@H]1NC(=O)c1ccccn1 (stereo partly drawn) | inactive: 2.59% | 
COc1ccc(/C=C2\N=C(C)OC2=O)cc1OC(C)=O | inactive: 0% | 
O=C(COC(=O)c1ccc([N+](=O)[O-])cc1)Nc1cccnc1Cl | inactive: 9.06% | 
COc1cc(C(=O)NCCNC(=O)c2ccco2)cc(OC)c1OC |  | inconclusive: 50.1 µM [inhibitor, partial curve, poor fit]
COc1ccc(-c2nc3ccncc3[nH]2)cc1 |  | inconclusive: 7.08 µM [inhibitor, full curve, poor fit]
CC(Oc1ccc2ccc(=O)oc2c1)C(=O)NCCc1ccc(F)cc1 (stereo not drawn) | inactive: -9.85% | 
O=C(O)C1OC(C(=O)O)C(C(=O)O)C1C(=O)O (stereo not drawn) |  | inconclusive: 1.78 µM [inhibitor, full curve]
COc1ccc(NC(=O)c2c(C)oc3ccc(O)c(CN4CCCCCC4)c23)cc1Cl |  | inconclusive: 50.1 µM [inhibitor, partial curve, poor fit]

An excerpt from above in order of length of the SMILES, smallest number first.
Structure (SMILES) | activity change, negative = inhibition | Potency
CCc1nc2ccccc2n1Cc1ccccc1OC | inactive: 0% | 
COc1ccc(-c2nc3ccncc3[nH]2)cc1 |  | inconclusive: 7.08 µM [inhibitor, full curve, poor fit]
CC1CCCCN1C(=O)c1cc(Cl)ccc1[N+](=O)[O-] (stereo not drawn) | inactive: -7.96% | 
Cc1ccccc1C(=O)Nc1c(C)nc(Nc2ccccc2)nc1Nc1ccccc1 |  | inconclusive: 5.01 µM [inhibitor, full curve, poor fit]
Cn1cncc1-c1cc2cnc(Nc3ccc(OC(F)(F)F)cc3)cc2[nH]1 |  | inconclusive: 2.82 µM [inhibitor, single point]
COc1ccc(NC(=O)c2c(C)oc3ccc(O)c(CN4CCCCCC4)c23)cc1Cl |  | inconclusive: 50.1 µM [inhibitor, partial curve, poor fit]
CN(C)CCN1C(=O)C2C(C(=O)Nc3cc(Cl)cc(Cl)c3)C3C=CC2(O3)C1C(=O)NC1CCCCC1 (stereo not drawn) | inactive: 7.61% | 
C[C@H]1[C@@H]2[C@@H](O)C([C@H](C)C(=O)NCc3ccco3)CC[C@@]2(C)CC[C@@H]1NC(=O)c1ccccn1 (stereo partly drawn) | inactive: 2.59% | 

Source: PubChem BioAssay AID1671190 (National Center for Advancing Translational Sciences (NCATS), 2021)
